Measured values as given in article PMC11423540, “Synthesis and biological evaluation of ortho-phenyl phenylhydroxamic acids containing phenothiazine with improved selectivity for class IIa histone deacetylases” (Journal of Enzyme Inhibition and Medicinal Chemistry, 2024).

Tested on: SCC2095 cells
Assay: Cell viability (MTT) assay, SCC2095
Format: cell-based
Conditions: Homo sapiens, 48 h, human oral cancer cells, read-out: IC50 of cytotoxicity SCC2095
Text: Human breast cancer MDA-MB-231 cells and gastric cancer SCM-1 cells were purchased from the American Type Culture Collection (Manasas, VA, USA). SCC2095 human oral cancer cells were kindly provided by Professor Susan R. Mallery (The Ohio State University). Normal human lung fibroblasts (NHLFs; CC-2512) were purchased from the Lonza (Walkersville, MD, USA). SCM-1 cells were maintained in RPMI-1640 medium (Invitrogen, Carlsbad, CA, USA); MDA-MB-231 and SCC2095 cells were maintained in DMEM/F12 (Invitrogen); and NHLFs were maintained in FGM™-2 medium (Lonza) with 2% serum, supplemented with 10% heat-inactivated foetal bovine serum (FBS; Gibco, Grand Island, NY, USA). All cells were cultured at 37 °C in a humidified incubator containing 5% CO2 and 95% relative humidity.
To assess cell viability, cells were seeded in three replicates into 96-well plates at a density of 5×10^3/well for 24 h following incubation with compounds at the indicated concentrations. Then, cell viability was assessed with 3–(4,5-dimethylthiazol-2-yl)-2,5-diphenyltetrazolium bromide (MTT) solution (0.5 mg/mL) for 4h as described previously. After removing the medium, 200 µL of DMSO was added, and then the absorbance was measured at 570 nm using a plate reader (BMG LABTECH, Germany).

## O=C(CCCCCCC(=O)Nc1ccccc1)NO [Vorinostat, reference compound]
  IC50: 2400 nM
